Measurements reported in US11419857B2, “Methods and compositions for treating pain” (Apkarian Technologies LLC, priority 2015, dated 2022).
At least one compound was matched to its structure with a doubt left.

Test system: iSPNs in NAc shell slices
Assay: Whole-cell patch-clamp recording of iSPN excitability in NAc shell slices, drugs bath applied
Assay type: cell-based
Settings: slices from SNI mice; bath application 20 μM
Method: Current clamp recordings were performed to quantify firing properties.
Sulpiride and Bicifadine were obtained from Tocris. CBR12909 was obtained from Sigma-Aldrich. Drugs were bath applied for at least 15 min to establish equilibrium in the tissue.

## Fc1ccc(C(OCCN2CCN(CCCc3ccccc3)CC2)c2ccc(F)cc2)cc1 [GBR12909]
  excitability of iSPNs: decreased the excitability of iSPNs
